Results are given in words; binding and its absence hold for the method and conditions named. In cells and extracts the contact can be indirect. Some binding calls cover weakened binding; strength is not graded here.
Biological target: AMBRA1^WT (activating molecule in Beclin1-regulated autophagy, wild type) (UniProt Q9C0C7)
Test: co-IP; AMBRA1 antibody (Proteintech) coupled to Dynabeads, mixed with lysate of SHSY5Y cells overexpressing AMBRA1 constructs; washed; western blot for the protein of interest

Amino acid sequences for entries named in this document (tags omitted).
UniProt Q9C0C7: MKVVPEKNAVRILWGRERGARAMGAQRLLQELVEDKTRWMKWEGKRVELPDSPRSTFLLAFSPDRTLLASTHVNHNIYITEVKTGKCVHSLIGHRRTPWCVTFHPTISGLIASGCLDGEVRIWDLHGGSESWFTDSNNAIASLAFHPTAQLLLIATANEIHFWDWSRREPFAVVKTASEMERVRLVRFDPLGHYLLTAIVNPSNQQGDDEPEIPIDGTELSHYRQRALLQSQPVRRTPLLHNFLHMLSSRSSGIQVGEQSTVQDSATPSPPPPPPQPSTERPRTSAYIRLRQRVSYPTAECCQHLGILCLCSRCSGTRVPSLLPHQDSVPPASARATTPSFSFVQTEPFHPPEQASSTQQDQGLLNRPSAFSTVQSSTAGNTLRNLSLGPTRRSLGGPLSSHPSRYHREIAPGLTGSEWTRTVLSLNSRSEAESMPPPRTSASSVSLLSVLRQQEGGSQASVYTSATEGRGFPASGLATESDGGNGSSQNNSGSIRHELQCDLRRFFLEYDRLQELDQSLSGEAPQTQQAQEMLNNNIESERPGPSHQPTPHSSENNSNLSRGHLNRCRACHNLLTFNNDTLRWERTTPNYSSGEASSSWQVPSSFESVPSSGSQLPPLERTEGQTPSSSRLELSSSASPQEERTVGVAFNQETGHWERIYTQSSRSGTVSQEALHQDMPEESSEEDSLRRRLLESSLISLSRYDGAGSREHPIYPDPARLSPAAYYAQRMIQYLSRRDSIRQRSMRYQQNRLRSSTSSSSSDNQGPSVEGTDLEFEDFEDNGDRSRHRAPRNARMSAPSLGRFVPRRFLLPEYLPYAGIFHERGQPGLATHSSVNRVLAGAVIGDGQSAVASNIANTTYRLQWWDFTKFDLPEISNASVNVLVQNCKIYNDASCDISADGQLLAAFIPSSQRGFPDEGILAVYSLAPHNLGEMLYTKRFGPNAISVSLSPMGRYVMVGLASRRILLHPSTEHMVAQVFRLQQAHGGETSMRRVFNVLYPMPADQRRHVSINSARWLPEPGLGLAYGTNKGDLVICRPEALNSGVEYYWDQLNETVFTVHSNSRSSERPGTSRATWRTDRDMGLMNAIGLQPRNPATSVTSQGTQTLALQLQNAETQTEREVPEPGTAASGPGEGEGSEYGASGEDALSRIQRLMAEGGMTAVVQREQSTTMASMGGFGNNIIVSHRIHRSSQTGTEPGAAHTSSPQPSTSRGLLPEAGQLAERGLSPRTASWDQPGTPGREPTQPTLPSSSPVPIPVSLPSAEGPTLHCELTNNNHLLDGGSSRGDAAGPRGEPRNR
UniProt P63167: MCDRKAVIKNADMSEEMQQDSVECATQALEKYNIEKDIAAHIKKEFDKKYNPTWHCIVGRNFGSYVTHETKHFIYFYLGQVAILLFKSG

“dynein light chain (DLC)1 (from UniProt P63167 1-89)” was tested, and the binding was “binds”.

From PMC11625884
